The results in this text go back to paper PMC7819943, “Rice protein-binding microarrays: a tool to detect cis-acting elements near promoter regions in rice”.

The list shows a part of the results.

The test has as its target T1, OsSMF1 (Oryza sativa, UniProt Q6ZLB0 1-436).
T1 sequence: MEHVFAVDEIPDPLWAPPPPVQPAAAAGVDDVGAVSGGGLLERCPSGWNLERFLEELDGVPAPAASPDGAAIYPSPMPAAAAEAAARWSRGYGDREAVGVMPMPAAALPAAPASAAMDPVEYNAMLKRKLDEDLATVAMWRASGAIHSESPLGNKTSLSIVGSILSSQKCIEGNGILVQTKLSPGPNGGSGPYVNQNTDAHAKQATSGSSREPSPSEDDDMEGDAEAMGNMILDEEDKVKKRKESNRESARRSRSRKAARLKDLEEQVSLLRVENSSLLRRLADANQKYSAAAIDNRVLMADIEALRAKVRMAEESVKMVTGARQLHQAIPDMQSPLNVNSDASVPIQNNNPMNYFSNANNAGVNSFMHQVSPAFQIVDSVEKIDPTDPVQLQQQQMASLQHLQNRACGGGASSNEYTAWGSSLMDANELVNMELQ
As to the kind of experiment: protein-binding microarray (RPBM); PBS, 2% BSA, 51.3 ng/ul salmon testes DNA, 50 uM zinc acetate, 200 nM TF, 25 C, 1 h; high values mean tight binding. Conditions: protein: recombinant; tags: N-terminal polyhistidine and DsRed monomer fusion (pET32a); chain copies: 2; label: CyDye5-dUTP incorporated in the synthesized complementary strand; 3' TTTTT single-stranded linker to array surface; dsDNA, one strand shown. The procedure, abridged: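 Transcription factors were made in E. coli BL21-CodonPlus as N-terminal fusions to a polyhistidine tag and DsRed, then purified on Ni–NTA. After primer extension with Cy5-dUTP and blocking with 2% BSA, a custom Agilent array was exposed for 1 h at 25 °C to 200 nM protein in PBS, 2% BSA, salmon testes DNA and 50 µM zinc acetate. Washed arrays were scanned on an Axon 4000B, and the binding signal is per-feature fluorescence intensity in arbitrary units.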
With “AAGCATCATCACTGTCGCTGTCATCAATCATTGTCACTTACGGAGTCACCTAGTGCAG”, the binding signal is 4630 fluorescence intensity (a.u.).

Take “AGATGCAATATGTGTATGACAGGTGAGACCATATATTAACCGGAGTCACCTAGTGCAG”: the binding signal was 25000 fluorescence intensity (a.u.).

With “CGGATCAAACTGATCAACGACAGATAGTTATGCCACGTCACGGAGTCACCTAGTGCAG”, the binding signal is 15700 fluorescence intensity (a.u.).

As for “TCCTCGCCGACGACGGCTTTCCCCTCACGCTCTCCCGTACCGGAGTCACCTAGTGCAG”, the binding signal is 3590 fluorescence intensity (a.u.).

Regarding “AAGAACTAGTGTAGCAAGGACAACAATGCCAAGAGCAAAACGGAGTCACCTAGTGCAG”, the binding signal was 10000 fluorescence intensity (a.u.).

Take “CCGTCACGGATGACACTTATCTGTGACGGGCTATAGTTGACGGAGTCACCTAGTGCAG”: the binding signal was 4260 fluorescence intensity (a.u.).

For “TGCTTCTCCAAGAACTCGCTCTGCCGCGAGCTTCTGCAGTCGGAGTCACCTAGTGCAG”, the binding signal was 3610 fluorescence intensity (a.u.).

Regarding “TAAATGGGGTAGGTAAAGAAGATGACATTGATGAGATCAGCGGAGTCACCTAGTGCAG”, the binding signal is 3510 fluorescence intensity (a.u.).

For the sequence “AGAGGGCGTGTACTCGTGACATCGTGTGTGTGCGTGTGCGCGGAGTCACCTAGTGCAG”, the binding signal is 6670 fluorescence intensity (a.u.).

Take “TACAAATATTCAGACCGCTATGATTGGTGAATTTGTGGATCGGAGTCACCTAGTGCAG”: the binding signal is 3660 fluorescence intensity (a.u.).

As to “GAAAGAAGAGATCGGGAATAACAAATAAGCTCAGATATATCGGAGTCACCTAGTGCAG”, the binding signal is 5780 fluorescence intensity (a.u.).

As to “GATAATCCGATATCACTCTCGCCACGCCAGACGCCACCTACGGAGTCACCTAGTGCAG”, the binding signal is 7800 fluorescence intensity (a.u.).

As to “GAGAGAGAGAGGGGACCAACTGAAAAGAGAGAGAAGCTAGCGGAGTCACCTAGTGCAG”, the binding signal was 31200 fluorescence intensity (a.u.).

Turning to “CGAGATGCCCTGCGCGTGGCATTTTATATTTTATTACTGCCGGAGTCACCTAGTGCAG”, the binding signal is 3680 fluorescence intensity (a.u.).

Take “GTCTTCATCATCAAGTTTCACATCTAACTTACTTAGATCCCGGAGTCACCTAGTGCAG”: the binding signal is 3390 fluorescence intensity (a.u.).

With “CCGTCTTCTTCCTCCACGTTCCTATCCATGGCGCCAGTTCCGGAGTCACCTAGTGCAG”, the binding signal is 41400 fluorescence intensity (a.u.).

“GAGGGAGTAATTGCTAGTGGATGATGATGTGACATGCTTGCGGAGTCACCTAGTGCAG”: the binding signal is 3950 fluorescence intensity (a.u.).

As to “GCAAACTAAGCATGTAAGATGACGTCATCAGTTGATGAATCGGAGTCACCTAGTGCAG”, the binding signal was 13500 fluorescence intensity (a.u.).

Turning to “TTTAATTTATGTTGGGTGGACGTGGATGCGCATGATGAGCCGGAGTCACCTAGTGCAG”, the binding signal is 4780 fluorescence intensity (a.u.).

As to “TTCATTGACCGAGAACGATAGCACGCATCACATCAGCATCCGGAGTCACCTAGTGCAG”, the binding signal is 3250 fluorescence intensity (a.u.).

Regarding “GGTCCCGTCAGGGAAGGACCCCACGTCCTCGGTTCCATTCCGGAGTCACCTAGTGCAG”, the binding signal is 3910 fluorescence intensity (a.u.).

Consider “CCCTGGATTTCCGTGCCAACGTTTGACTGTCCGTCTTATACGGAGTCACCTAGTGCAG”, for which the binding signal was 4290 fluorescence intensity (a.u.).

Regarding “TAGATGTTACTCCCTCCGTCCCTTCGTCCTAAAATGTAGCCGGAGTCACCTAGTGCAG”, the binding signal was 35900 fluorescence intensity (a.u.).

As for “CTGCTACATGTGGCCGGTCGGTTGCAATGGTTGTAATTATCGGAGTCACCTAGTGCAG”, the binding signal was 3220 fluorescence intensity (a.u.).

As to “GGTGGTAATCTTGTGATGTGACTCAGGAATGGCGCACAAACGGAGTCACCTAGTGCAG”, the binding signal was 6750 fluorescence intensity (a.u.).

“GCTGGGGTGTCCATCACATGGACGTCAAGTCGGCATTTCTCGGAGTCACCTAGTGCAG”: the binding signal is 3590 fluorescence intensity (a.u.).

In the case of “GGGCCGGTCTTCCATGCAGACGTGTACAAGTGCCTTGCACCGGAGTCACCTAGTGCAG”, the binding signal is 9030 fluorescence intensity (a.u.).

For the sequence “ATGCATGAGGTAGATGAGTGCGTATGTCACACAAATTAGGCGGAGTCACCTAGTGCAG”, the binding signal is 4330 fluorescence intensity (a.u.).

As to “CATGAACGTCCGCCTACCGGAAGGGTACGTGATACGACCACGGAGTCACCTAGTGCAG”, the binding signal is 3420 fluorescence intensity (a.u.).

“ATGTGTTTATAGCTTGCTTATAGTCTGTTGTTGTATCTGCCGGAGTCACCTAGTGCAG”: the binding signal was 8040 fluorescence intensity (a.u.).

For “GCACGTGATGCTGCATGTTCCGTGAACGTGTCAACTTTGTCGGAGTCACCTAGTGCAG”, the binding signal was 5890 fluorescence intensity (a.u.).

As to “GCCGAGTCAGCATGGGTTTCAGTTAAGAACGCGCGAACTCCGGAGTCACCTAGTGCAG”, the binding signal was 30000 fluorescence intensity (a.u.).

Regarding “ATTAACCATGTTAAATGTGTTTGCACACGAGACACGACTACGGAGTCACCTAGTGCAG”, the binding signal is 21700 fluorescence intensity (a.u.).

Turning to “TGGGAGGCGTCAGGCCCCGGAATGTCACGTGAGCCTTCAACGGAGTCACCTAGTGCAG”, the binding signal is 3160 fluorescence intensity (a.u.).

As for “GCACAGGCTTGACACCAGTCGAGCCGAGCCGAAACCCCGTCGGAGTCACCTAGTGCAG”, the binding signal is 3270 fluorescence intensity (a.u.).

Take “GAAAGAAAAGAAAAGAAACTGAAAGCGTCACGTGCACGGTCGGAGTCACCTAGTGCAG”: the binding signal is 3860 fluorescence intensity (a.u.).

As for “AGAATCTCACAGATGCAACTAGCAAAACGACTAACTGGTTCGGAGTCACCTAGTGCAG”, the binding signal is 6980 fluorescence intensity (a.u.).

In the case of “CCATCTCCGACGAATGATGCTTTGACACTTAATGCTGCGTCGGAGTCACCTAGTGCAG”, the binding signal is 3350 fluorescence intensity (a.u.).

As for “GTGTATGCACGTTTATAGGTGTGAGTGTATGTTGTAAGCGCGGAGTCACCTAGTGCAG”, the binding signal was 3670 fluorescence intensity (a.u.).

Consider “TGAATTGATCAAGTGCTAATAGAGTAGCAGGTCAATGCAACGGAGTCACCTAGTGCAG”, for which the binding signal was 3170 fluorescence intensity (a.u.).

For “TGAGCATGCTGACGAGCGCCGGAGTCGTGTACGAGGTGATCGGAGTCACCTAGTGCAG”, the binding signal was 4540 fluorescence intensity (a.u.).

Regarding “AATAGCAGCCATCGCGGCCTTTATAAGCATCCACGCACGACGGAGTCACCTAGTGCAG”, the binding signal was 3250 fluorescence intensity (a.u.).

Regarding “CAGTTCTTGTGTGTTTGTGTCCACCGAGTAAATACAAGTGCGGAGTCACCTAGTGCAG”, the binding signal was 3440 fluorescence intensity (a.u.).

Take “GTGACTGATGAACATGATGTTGGATGTATGGGATGGCACGCGGAGTCACCTAGTGCAG”: the binding signal is 3740 fluorescence intensity (a.u.).

On to “AAATGCTGTTTCAGTAGAGGCTGAAATTTATGTTGCTGATCGGAGTCACCTAGTGCAG”, for which the binding signal is 3670 fluorescence intensity (a.u.).

As for “CGGGCGACGCCGGTGCTGGCGCCAGCGTGGGGCCGCGACGCGGAGTCACCTAGTGCAG”, the binding signal was 4780 fluorescence intensity (a.u.).

Take “CGGTAGACATATTTGATGACATAATCCAAAGTAACTATATCGGAGTCACCTAGTGCAG”: the binding signal is 3690 fluorescence intensity (a.u.).

For the sequence “TCCCGGCCGTGACCAGCTCTGTCGTCACGCTCGTTGTCGTCGGAGTCACCTAGTGCAG”, the binding signal was 7650 fluorescence intensity (a.u.).

In the case of “ACTTGGTTCAAGATGTGCCATGTGTGCCGTGTGTTGCCTTCGGAGTCACCTAGTGCAG”, the binding signal is 4140 fluorescence intensity (a.u.).

With “CCCGTGGCCGCGCCTCCGCCGGCGAATCCACGTCGCCGTCCGGAGTCACCTAGTGCAG”, the binding signal is 5270 fluorescence intensity (a.u.).

“TGTTCCCCGCTACGTCAACTGTGAGATCTGATACGATGGACGGAGTCACCTAGTGCAG”: the binding signal was 8540 fluorescence intensity (a.u.).

Consider “CATAGCAACCACAACCGCCACCTCCTCTAACCAACCGAAGCGGAGTCACCTAGTGCAG”, for which the binding signal was 3430 fluorescence intensity (a.u.).

On to “AGCCCAATTCGTTGTACCTCAATCAACTTGGAATAAGAACCGGAGTCACCTAGTGCAG”, for which the binding signal is 3180 fluorescence intensity (a.u.).

Turning to “TTGCTGTGTCTTTGTATTTTGATTTCGCCTTAACGAGGGTCGGAGTCACCTAGTGCAG”, the binding signal is 32300 fluorescence intensity (a.u.).
